# In PubChem BioAssay AID1347423 (Functional Genomics Laboratory (NCATS/FGL), 2020):
# The whole screen tested about 52,000 sequences, of which about 210 (0.4%) were called active.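 The calls were made as follows: active = gene whose silencing raises cell survival under the drug, median off-target-corrected z-score across its silencing RNAs 2 or more; inactive = the rest.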 The list shows a part of the results.
# Assay: Resistance to Poly (ADP-Ribose) Polymerase inhibitor: Gene Identification via Genome-wide siRNA Screen
# Conditions: mouse BRCA2 R2336H ES cells, olaparib, CellTiter-Glo viability; stronger effect = higher value
# Procedure, shortened: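 Genome-wide siRNA screen (3 siRNAs/gene, 20 nM) in mouse ES cells carrying hypomorphic BRCA2 R2336H; olaparib 500 nM added 48 h post-transfection, CellTiter-Glo viability 72 h later. Normalized to plate-median negative control; MAD z-scores, gene median, seed-adjusted.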
row,Sequence,z-score
1,GCAGGGAUCUGGAUUUAAUTT against Arf5,inactive: 0.29
2,GCAGUCAUGCCCGAUCUUGTT against A830006N08Rik,inactive: -1.38
3,GGAACAAAAGGUGAUCGUGTT against Col25a1,inactive: 0.717
4,CGUCUGCCACCUAUUUGAGTT against Olfr122,inactive: -0.715
5,GGGAGCUAUGGAUUUGCUGTT against Tcea2,inactive: 0.614
6,GGCAGUAGUGUUAACGGUGTT against Chrnb2,active: 2.38
7,GCCAUCCUGAUAUCAGGCATT against Tas2r138,inactive: 0.496
8,GGACAUUCGUGGUUCCAUCTT against 4833412N02Rik,inactive: 0.546
9,GGAGAAACAUCAAUUGCACTT against Thbs2,inactive: 0.387
10,GGAAAUGACGAGAAGAAAGTT against Mapt,inactive: -1.01
11,GGCAGCAACUUGAUAAUAATT against 0610011I04Rik,inactive: -1.68
12,GCAUUUAAUGCCAAACCUGTT against Kirrel1,inactive: 0.255
13,GGAUUGGCAACCUCCAUUUTT against Rbbp2,inactive: 2.67
14,GGAACACUAUCUCACCUUUTT against Psd2,inactive: 0.516
15,GCAUGAAUAUUCCUCGUGATT against LOC433501,inactive: 2.08
16,GCCAUGAAACUUCAUGCUGTT against Spink4,inactive: -0.497
17,CUUUCUUGCCGUAUUUUACTT against Olfr1287,inactive: 0.801
18,GGAGAAACAGAAAGGUCACTT against Tmepai,inactive: 0.695
19,GGAGCUGAAUGACCGCUUUTT against Vim,inactive: -0.25
20,GAUUAUCCAUUGCCCGAUGTT against Sprrl9,inactive: 1.7
21,GGACGACUGAGUCUUUGAATT against Il20,inactive: 0.163
22,GGCAGUCAAGGCUAUGGACTT against Taf15,inactive: 2.41
23,CGGCCUAACAGCCAGACUUTT against 1700013G24Rik,inactive: -0.67
24,GGCCAAUUCACCAACGGCATT against Jph2,inactive: 0.2
25,GGAAGAGGCCAGCUAUAACTT against B930007L02Rik,inactive: -2.57
26,GGGACAUGAGCCAUUCAUCTT against Mlr2,inactive: -0.963

row,Sequence,z-score
1,GGAACAAGCCCAAGAAGAATT against Mad,inactive: -1.37
2,GGUGGCAGUCACCAUUCUUTT against Il17rd,inactive: -1.64
3,GGAUCUUCUGGAUAGAAUGTT against Prc1,inactive: 0.0886
4,GGAAGACUUCACUAAGAUCTT against Dpysl5,inactive: 0.327
5,GGGUUUCUAUAUAUUUAGGTT against Cdca7,inactive: -0.664
6,GCCCGAAAAAAACGUAGGATT against Map3k14,inactive: -0.326
7,GGAAAGCUUGAAAAUGUUCTT against 4932438A13Rik,inactive: -0.231
8,GGCUCUGUGAUGGUCUUACTT against Olfr446,inactive: -2.42
9,CCAGCUAAAAAGAUGGUAGTT against 1110037N09Rik,inactive: 0.728
10,GCAGUACCCUUACAAUAAUTT against Ndufb8,inactive: -0.36
11,CCUGUAAGAUGUUUCGGCCTT against Zdhhc18,inactive: 0.825
12,GGAUCACAAGCUGGUGUUCTT against 5033413H12Rik,inactive: 0.606
13,CCCGUGGUCCUACAUUGUUTT against Cdon,inactive: 0.357
14,GGAUGUAAAGAUUAGCGUGTT against Dgcr8,inactive: -0.0062
15,CCAUCCAGUAAGGUUAUUCTT against Npy5r,inactive: 0.651
16,GGAAUUAUCUUCAUCCCUGTT against D230019K24Rik,inactive: 0.492
17,GGAGGAGGAGACCAUCAUGTT against Neud4,inactive: -0.279
18,CGUUGUGCAAUUUAUACUATT against Zfp84,inactive: 0.063
19,GGGAUUACUUGUAUCGGGATT against 1700006D24Rik,inactive: 0.302
20,GGCCAAAGGGCAAAGUGAUTT against D3Bwg0562e,inactive: 0.678
21,GGAGCAACUACAAACAUCUTT against Acas2,inactive: 0.504
22,GCAGGUGAAGAGUGAUUUUTT against Il10,inactive: 1.01
23,GGAUUCAGUGGCUAUCAACTT against Olfr770,inactive: 1.12
24,GGAUGAAGAACUCAGAGUGTT against 2310009N05Rik,inactive: 0.143
25,CCCAUAGCUAAUGAACCAATT against Sntg2,inactive: -1.9
26,GCUCAACGGUUUACCCUCATT against Ppp5c,inactive: -1.39

# Laid out differently: results already given
row	Sequence	z-score
19	GGAGCUGAAUGACCGCUUUTT against Vim	inactive: -0.25
20	GAUUAUCCAUUGCCCGAUGTT against Sprrl9	inactive: 1.7
21	GGACGACUGAGUCUUUGAATT against Il20	inactive: 0.163
22	GGCAGUCAAGGCUAUGGACTT against Taf15	inactive: 2.41
23	CGGCCUAACAGCCAGACUUTT against 1700013G24Rik	inactive: -0.67
24	GGCCAAUUCACCAACGGCATT against Jph2	inactive: 0.2
25	GGAAGAGGCCAGCUAUAACTT against B930007L02Rik	inactive: -2.57
26	GGGACAUGAGCCAUUCAUCTT against Mlr2	inactive: -0.963
1	GGAACAAGCCCAAGAAGAATT against Mad	inactive: -1.37
2	GGUGGCAGUCACCAUUCUUTT against Il17rd	inactive: -1.64
3	GGAUCUUCUGGAUAGAAUGTT against Prc1	inactive: 0.0886
